Assay results reported in PMC4800795.
These are yes or no findings as the source states them, for the method shown. Binding seen in cells or lysates may run through a third protein. Some results given as binding are weak or reduced against the parent protein; the word gives no strength. For part of these data: Sequences can lack the tags named with a protein. Each block holds one molecule with its values, some of them ahead of it.

Sequences of proteins named here, by UniProt entry; tags and fusion partners are left off.
UniProt Q9UNN5: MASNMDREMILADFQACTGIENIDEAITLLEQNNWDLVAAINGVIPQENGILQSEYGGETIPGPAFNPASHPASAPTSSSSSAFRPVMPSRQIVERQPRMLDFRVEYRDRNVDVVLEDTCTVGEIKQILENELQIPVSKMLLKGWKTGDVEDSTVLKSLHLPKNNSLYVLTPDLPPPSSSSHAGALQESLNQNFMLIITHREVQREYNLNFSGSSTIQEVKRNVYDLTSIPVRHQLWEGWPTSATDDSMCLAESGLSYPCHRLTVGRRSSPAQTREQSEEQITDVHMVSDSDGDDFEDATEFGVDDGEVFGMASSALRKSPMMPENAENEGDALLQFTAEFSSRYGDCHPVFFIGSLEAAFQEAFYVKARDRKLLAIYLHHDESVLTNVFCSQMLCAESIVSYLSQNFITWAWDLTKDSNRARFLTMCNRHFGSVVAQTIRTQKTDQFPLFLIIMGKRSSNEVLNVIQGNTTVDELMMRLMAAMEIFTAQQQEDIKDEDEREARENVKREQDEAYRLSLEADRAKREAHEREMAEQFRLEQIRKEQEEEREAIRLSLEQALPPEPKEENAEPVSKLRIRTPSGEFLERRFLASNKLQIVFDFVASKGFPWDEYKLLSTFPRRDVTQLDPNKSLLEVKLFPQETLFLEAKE

Assays:
[1] = molecular target: T1, IPO5/importin-β3, endogenous in HEK293T cells (human (endogenous in HEK293T)) (UniProt O00410); experiment: co-IP; competition: anti-GFP immunoprecipitation from HEK293T cells cotransfected for 30 h with IRF3-5D-GFP and Flag-FAF1 or a control plasmid; Western blot
T1 sequence: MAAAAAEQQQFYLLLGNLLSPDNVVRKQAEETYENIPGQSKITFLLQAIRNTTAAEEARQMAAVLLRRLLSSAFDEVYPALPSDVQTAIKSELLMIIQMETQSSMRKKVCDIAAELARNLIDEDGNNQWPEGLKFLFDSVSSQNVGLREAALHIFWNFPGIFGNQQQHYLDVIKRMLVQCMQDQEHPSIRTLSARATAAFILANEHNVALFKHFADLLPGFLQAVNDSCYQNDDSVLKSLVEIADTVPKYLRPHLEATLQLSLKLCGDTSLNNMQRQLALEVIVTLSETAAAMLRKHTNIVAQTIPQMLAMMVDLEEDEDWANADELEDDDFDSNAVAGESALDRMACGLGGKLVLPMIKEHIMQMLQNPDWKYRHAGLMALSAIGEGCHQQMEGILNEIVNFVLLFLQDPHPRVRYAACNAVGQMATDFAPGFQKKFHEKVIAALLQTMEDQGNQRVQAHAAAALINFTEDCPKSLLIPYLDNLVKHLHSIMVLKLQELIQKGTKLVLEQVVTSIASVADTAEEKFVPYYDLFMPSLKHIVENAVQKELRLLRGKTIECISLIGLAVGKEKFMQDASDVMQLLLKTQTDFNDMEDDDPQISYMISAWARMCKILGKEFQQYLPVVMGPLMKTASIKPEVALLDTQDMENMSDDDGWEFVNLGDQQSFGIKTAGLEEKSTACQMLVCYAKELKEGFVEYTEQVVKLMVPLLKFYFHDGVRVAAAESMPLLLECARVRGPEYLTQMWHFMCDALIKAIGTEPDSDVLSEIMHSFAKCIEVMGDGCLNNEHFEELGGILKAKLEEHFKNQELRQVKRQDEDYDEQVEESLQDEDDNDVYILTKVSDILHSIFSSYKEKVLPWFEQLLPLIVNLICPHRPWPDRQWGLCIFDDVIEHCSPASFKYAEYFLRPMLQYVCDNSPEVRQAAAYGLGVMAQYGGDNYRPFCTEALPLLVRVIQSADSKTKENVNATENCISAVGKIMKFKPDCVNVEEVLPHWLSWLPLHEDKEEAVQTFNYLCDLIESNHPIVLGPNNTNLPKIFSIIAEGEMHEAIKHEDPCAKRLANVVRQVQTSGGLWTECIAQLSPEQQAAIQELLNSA

[2] = molecular target: Flag-FAF1 (Fas-associated factor 1, wild type), in HeLa cells (human) (UniProt Q9UNN5); experiment: co-IP; anti-Flag immunoprecipitation from HeLa cells transfected with Flag or Flag-FAF1, untreated or poly(I·C) 10 μg/ml for 6 h; lysis buffer 150 mM NaCl, 50 mM Tris-HCl pH 7.4, 1 mM EDTA, 1% CHAPS; Western blot
[3] = molecular target: T2, GFP-tagged wild-type IRF3 (IRF3-WT-GFP), in HEK293T cells (UniProt Q14653); experiment: co-IP; anti-GFP immunoprecipitation from HEK293T cells transfected for 30 h with IRF3-WT-GFP or IRF3-5D-GFP, with or without Flag-RIG-I N; lysis buffer 150 mM NaCl, 50 mM Tris-HCl pH 7.4, 1 mM EDTA, 1% CHAPS; Western blot
T2 sequence: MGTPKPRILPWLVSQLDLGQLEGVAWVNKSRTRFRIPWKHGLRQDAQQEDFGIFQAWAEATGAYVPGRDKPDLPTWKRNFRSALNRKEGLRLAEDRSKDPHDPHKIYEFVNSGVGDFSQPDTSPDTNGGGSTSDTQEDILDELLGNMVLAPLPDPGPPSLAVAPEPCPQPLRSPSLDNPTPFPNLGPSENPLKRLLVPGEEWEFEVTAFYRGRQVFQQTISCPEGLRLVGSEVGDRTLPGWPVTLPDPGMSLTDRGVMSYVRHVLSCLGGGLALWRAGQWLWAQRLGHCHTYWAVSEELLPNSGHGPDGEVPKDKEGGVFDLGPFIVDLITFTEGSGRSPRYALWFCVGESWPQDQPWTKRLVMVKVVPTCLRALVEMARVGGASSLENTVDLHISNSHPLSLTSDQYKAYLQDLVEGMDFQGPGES

binding [1]: binds
Molecule: Flag-FAF1 (Fas-associated factor 1, wild type), in HEK293T cells (from UniProt Q9UNN5 1-650)

binding [2]: binds
B1: IPO5/importin-β3, endogenous in HeLa cells (protein, UniProt O00410 1-1097)
chain: T1 sequence

binding [3]: binds
B2: IPO5/importin-β3, endogenous in HEK293T cells (protein, UniProt O00410 1-1097)
chain: T1 sequence
